This is one part of the list.
What was measured:
Test in all cases: log2 fold change, soluble protein after heating vs DMSO (PISA); higher = thermal stabilisation; K562 lysate, 10 uM; active = over 0.2 and 3.5 SD of the protein, either way, in both replicates (recomputed)
[1] = compound: C#Cc1cccc(Nc2ncnc3cc(OCCOC)c(OCCOC)cc23)c1 [erlotinib]
Method in brief: (§1)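 K562 pellets were dounce-homogenised in PBS pH 7.4 containing 1 mM MgCl2, and the crude extract, at 1 mg/mL protein, was exposed to 10 μM compound for 30 min. Aliquots were heated for 3 min across 48°C-58°C, pooled, brought to 0.5% NP-40 at 4°C and spun at 21,000xg for 90 min, with the supernatant taken as soluble protein. TMTpro 16plex LC-MS/MS with equalised channel sums quantified that protein. Values are log-two fold changes in thermal stability relative to solvent controls, taken from duplicates.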

Amino acid sequences for entries named in this document (tags omitted). A change or cut given only in a name is not applied to a line headed by its entry.
UniProt Q8IYB3: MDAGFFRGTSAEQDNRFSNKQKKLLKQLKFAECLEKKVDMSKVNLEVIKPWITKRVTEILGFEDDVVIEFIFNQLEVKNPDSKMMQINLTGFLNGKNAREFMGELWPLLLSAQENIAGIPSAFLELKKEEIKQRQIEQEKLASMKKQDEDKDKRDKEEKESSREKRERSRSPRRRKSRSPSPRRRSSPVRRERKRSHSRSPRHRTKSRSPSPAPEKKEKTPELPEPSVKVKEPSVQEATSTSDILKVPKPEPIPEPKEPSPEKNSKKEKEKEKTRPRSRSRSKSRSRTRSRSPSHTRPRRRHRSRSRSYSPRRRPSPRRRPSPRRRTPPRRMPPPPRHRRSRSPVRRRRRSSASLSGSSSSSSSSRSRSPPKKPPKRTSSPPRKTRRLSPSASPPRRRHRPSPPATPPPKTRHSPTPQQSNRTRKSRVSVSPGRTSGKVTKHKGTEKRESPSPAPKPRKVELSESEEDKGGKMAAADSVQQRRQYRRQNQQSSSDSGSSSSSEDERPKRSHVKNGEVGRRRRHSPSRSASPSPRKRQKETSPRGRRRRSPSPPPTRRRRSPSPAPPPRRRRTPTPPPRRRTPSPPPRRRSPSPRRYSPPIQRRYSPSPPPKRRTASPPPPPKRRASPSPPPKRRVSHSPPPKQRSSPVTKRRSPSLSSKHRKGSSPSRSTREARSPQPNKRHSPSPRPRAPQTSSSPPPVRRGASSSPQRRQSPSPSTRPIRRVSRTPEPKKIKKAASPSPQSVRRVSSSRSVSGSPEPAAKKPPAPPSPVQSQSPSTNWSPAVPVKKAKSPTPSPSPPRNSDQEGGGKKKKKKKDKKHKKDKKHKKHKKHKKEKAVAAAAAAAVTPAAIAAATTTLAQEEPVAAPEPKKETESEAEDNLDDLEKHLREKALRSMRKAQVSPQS
UniProt O60225: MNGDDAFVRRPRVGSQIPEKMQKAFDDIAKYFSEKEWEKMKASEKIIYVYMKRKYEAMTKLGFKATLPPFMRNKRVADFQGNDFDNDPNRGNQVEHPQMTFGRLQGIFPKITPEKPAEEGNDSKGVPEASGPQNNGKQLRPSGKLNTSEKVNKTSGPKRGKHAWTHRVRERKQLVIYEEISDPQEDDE
UniProt Q9NRC1: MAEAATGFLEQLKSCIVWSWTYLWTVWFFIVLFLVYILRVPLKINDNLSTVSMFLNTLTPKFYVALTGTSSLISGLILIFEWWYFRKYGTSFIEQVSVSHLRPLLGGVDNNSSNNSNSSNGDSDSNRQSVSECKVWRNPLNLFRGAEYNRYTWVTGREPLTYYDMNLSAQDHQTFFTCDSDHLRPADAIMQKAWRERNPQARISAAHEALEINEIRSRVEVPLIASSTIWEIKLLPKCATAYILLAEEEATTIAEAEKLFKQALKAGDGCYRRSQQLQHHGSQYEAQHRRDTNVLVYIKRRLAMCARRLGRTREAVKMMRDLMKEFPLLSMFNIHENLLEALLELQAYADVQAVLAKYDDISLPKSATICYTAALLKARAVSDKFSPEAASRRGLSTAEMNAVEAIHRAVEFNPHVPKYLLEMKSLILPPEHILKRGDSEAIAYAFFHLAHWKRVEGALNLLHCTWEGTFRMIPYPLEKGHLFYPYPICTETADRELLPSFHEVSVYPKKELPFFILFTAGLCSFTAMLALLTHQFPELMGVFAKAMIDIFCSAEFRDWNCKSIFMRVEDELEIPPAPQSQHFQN
UniProt Q9UHB9: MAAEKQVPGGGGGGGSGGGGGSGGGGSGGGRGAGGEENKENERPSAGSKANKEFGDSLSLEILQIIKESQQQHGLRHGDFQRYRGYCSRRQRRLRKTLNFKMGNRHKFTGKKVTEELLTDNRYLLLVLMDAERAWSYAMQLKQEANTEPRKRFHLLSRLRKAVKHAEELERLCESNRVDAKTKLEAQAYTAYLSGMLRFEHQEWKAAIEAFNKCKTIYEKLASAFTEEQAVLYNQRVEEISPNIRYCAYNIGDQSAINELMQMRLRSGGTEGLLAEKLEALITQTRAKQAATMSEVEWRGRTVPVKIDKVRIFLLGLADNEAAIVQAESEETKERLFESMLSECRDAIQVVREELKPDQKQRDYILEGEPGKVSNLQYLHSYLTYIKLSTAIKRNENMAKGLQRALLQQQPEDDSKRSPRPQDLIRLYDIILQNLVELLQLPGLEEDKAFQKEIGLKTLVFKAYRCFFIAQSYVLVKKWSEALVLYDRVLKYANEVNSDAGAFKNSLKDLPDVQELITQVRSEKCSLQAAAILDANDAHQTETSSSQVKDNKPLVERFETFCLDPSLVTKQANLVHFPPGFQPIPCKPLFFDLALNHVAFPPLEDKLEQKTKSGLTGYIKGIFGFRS
UniProt Q8NBT2: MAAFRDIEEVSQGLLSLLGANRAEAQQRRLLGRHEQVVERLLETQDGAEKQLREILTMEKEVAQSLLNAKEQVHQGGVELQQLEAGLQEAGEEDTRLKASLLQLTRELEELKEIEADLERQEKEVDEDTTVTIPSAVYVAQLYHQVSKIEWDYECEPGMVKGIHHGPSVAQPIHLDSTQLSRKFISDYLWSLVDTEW
UniProt P11831: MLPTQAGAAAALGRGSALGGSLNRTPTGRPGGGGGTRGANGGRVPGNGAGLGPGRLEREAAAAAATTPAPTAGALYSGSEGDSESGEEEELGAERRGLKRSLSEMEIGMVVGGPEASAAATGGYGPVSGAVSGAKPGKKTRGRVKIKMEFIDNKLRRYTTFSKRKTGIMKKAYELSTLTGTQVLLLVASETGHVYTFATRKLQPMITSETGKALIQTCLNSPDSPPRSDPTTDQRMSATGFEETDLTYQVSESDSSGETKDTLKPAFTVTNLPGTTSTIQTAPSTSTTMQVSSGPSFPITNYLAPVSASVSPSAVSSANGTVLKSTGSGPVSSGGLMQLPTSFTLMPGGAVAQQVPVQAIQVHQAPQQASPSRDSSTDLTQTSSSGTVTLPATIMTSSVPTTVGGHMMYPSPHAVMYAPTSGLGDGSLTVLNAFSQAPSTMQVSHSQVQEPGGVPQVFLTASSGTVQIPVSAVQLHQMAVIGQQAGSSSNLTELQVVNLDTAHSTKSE
UniProt Q6ZRS2, whole entry, looked up: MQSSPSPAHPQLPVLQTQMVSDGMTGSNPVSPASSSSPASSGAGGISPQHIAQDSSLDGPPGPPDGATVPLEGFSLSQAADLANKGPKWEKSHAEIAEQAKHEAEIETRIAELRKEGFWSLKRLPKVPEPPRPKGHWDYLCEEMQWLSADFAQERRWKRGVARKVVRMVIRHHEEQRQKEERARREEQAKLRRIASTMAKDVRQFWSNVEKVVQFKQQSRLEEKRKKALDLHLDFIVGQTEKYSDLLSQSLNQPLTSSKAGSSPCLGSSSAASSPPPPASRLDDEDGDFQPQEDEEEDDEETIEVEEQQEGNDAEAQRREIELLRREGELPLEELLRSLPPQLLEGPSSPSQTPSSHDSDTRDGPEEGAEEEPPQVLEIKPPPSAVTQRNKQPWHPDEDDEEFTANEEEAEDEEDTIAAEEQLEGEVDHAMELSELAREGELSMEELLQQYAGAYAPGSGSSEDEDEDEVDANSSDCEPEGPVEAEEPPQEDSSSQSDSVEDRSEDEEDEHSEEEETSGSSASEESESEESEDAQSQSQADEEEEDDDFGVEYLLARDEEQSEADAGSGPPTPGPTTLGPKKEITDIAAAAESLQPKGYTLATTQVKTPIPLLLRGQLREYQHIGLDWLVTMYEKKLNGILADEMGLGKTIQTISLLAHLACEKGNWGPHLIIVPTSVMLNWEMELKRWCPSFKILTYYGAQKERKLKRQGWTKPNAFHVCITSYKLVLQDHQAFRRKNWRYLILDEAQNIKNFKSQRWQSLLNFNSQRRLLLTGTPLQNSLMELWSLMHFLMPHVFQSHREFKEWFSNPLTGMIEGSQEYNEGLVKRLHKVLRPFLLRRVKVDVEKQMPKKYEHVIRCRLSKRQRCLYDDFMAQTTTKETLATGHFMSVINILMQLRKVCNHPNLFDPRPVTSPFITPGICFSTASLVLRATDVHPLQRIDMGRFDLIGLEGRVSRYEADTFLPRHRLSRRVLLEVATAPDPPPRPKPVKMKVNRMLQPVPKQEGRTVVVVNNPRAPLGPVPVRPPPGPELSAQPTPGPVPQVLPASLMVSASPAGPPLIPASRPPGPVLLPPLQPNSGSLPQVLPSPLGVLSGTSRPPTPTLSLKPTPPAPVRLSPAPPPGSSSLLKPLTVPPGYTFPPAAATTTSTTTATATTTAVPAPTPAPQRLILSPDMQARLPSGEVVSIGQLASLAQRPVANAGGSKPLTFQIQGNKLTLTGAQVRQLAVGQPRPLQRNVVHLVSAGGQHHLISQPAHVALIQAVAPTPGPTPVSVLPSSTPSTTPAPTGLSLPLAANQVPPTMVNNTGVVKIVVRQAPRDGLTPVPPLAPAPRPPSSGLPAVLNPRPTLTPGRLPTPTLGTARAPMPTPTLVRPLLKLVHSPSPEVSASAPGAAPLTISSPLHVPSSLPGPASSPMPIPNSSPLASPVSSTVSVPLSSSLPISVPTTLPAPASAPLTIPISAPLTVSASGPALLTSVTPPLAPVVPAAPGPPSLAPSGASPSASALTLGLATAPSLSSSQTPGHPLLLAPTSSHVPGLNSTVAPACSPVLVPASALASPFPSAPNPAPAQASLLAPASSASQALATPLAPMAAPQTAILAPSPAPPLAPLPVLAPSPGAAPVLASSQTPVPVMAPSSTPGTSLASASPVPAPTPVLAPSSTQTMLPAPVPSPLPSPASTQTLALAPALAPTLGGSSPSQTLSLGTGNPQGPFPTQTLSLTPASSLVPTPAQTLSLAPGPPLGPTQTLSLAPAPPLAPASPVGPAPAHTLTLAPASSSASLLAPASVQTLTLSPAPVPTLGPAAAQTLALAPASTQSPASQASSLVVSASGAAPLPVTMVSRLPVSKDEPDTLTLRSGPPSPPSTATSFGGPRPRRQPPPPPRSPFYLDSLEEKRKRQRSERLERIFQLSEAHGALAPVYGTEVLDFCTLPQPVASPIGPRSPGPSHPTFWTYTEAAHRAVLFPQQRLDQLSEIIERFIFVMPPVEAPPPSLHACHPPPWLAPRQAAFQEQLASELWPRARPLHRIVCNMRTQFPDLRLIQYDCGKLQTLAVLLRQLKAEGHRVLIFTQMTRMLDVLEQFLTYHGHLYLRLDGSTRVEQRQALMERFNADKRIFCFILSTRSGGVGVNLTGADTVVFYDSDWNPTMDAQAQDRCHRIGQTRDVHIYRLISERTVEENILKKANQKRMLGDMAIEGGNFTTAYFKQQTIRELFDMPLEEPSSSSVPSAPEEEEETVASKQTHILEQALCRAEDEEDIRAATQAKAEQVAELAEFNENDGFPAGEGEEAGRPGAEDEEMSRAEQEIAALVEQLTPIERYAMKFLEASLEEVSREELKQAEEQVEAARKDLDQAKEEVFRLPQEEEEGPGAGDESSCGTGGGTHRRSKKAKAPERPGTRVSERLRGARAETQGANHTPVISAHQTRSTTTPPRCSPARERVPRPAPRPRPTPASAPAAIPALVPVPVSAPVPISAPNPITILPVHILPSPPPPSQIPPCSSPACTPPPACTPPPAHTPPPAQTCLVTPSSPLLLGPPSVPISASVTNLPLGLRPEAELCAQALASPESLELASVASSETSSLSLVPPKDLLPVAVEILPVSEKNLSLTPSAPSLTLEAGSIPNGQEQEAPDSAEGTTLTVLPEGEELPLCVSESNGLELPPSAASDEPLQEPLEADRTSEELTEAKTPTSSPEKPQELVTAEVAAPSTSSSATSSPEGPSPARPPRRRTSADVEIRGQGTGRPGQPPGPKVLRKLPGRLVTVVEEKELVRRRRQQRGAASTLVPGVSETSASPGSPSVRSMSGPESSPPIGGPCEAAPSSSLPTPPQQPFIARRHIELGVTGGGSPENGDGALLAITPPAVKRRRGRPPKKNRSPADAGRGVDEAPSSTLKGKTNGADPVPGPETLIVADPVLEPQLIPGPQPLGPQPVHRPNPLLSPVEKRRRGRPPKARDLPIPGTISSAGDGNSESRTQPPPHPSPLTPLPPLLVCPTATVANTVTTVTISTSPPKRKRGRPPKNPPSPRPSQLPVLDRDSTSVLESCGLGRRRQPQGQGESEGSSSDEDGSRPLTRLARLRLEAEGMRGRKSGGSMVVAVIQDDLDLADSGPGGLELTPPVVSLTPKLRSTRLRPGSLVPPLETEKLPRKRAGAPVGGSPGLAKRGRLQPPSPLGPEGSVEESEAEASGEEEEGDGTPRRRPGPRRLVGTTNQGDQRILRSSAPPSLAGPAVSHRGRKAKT
UniProt P61009: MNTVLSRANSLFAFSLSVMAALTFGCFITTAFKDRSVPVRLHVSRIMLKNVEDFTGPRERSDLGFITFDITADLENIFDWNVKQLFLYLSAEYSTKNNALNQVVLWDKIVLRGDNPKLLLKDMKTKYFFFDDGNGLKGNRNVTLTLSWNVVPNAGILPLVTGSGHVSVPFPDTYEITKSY
UniProt P51571: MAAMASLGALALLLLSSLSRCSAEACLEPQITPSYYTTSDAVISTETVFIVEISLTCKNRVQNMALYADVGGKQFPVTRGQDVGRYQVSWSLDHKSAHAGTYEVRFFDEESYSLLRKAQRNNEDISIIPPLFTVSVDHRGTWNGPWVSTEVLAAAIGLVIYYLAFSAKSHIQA

[2] = compound: C/C(=N\NC(=O)C1=CC(=CC=C1)S(=O)(=O)N2CCOCC2)/C3=C(C=CC(=C3)Cl)O
Method in brief: as §1

[3] = compound: C1=CC(=CC=C1C2=NC3=C(N2)C=C(C=C3)C(=O)N)OC4=CC=C(C=C4)Cl
Method in brief: as §1

[4] = compound: C1=CC2=C(C=CC(=C2)/C=C\3/C(=O)NC(=NCC4=CC=CS4)S3)N=C1
Method in brief: as §1

[5] = compound: C1=CC2=NC=CN=C2C=C1/C=C/3\C(=O)NC(=O)S3
Method in brief: as §1

[6] = compound: C1=CC=C(C=C1)C2=NC(=C(N2)C3=CC=NC=C3)C4=CC(=C(C=C4)Cl)O
Method in brief: as §1

[7] = compound: C1=CC=C2C(=C1)C3=NNC4=CC=CC(=C43)C2=O
Method in brief: as §1

[8] = compound: C1CCN(C1)C(=O)NC2=CC=CC(=C2)NC3=NC=C(C(=N3)NCCC4=CN=CN4)Br
Method in brief: as §1

[9] = compound: C1CN(CCC1(CC2=CC=C(C=C2)Cl)N)C3=NC=NC4=C3C=CN4
Method in brief: as §1

[10] = compound: C1COCCN1CCN2C3=CC=CC=C3N=C2NC(=O)C4=CC(=CC=C4)[N+](=O)[O-] [IRAK-1-4 Inhibitor I]
Method in brief: as §1

Measured: log2 fold change

SPHK1 isoform 2 (UniProt Q9NYA1)
inactive: [1] -0.055 | [2] -0.462 | [3] -0.059 | [4] 0.038 | [5] 0.034 | [6] -0.097 | [7] -0.066 | [8] 0.016 | [9] 0.038 | [10] 0.018

ST6GALNAC1 (UniProt Q9NSC7)
inactive: [1] 0.034 | [2] -0.11 | [3] 0.022 | [4] 0.043 | [5] -0.044 | [6] -0.049 | [7] -0.052 | [8] 0.042 | [9] -0.025 | [10] 0.04

SRSF5 (UniProt Q13243)
inactive: [1] -0.033 | [2] -0.224 | [3] -0.001 | [4] -0.043 | [5] -0.035 | [6] 0.023 | [7] -0.019 | [8] 0.023 | [9] -0.005 | [10] 0.03

SRPK1 (UniProt Q96SB4)
inactive: [1] 0.015 | [2] -0.04 | [3] 0.121 | [4] 0.016 | [5] 0.003 | [6] 0.05 | [7] 0.017 | [8] -0.01 | [9] 0.007 | [10] 0.019

SRRM1 (UniProt Q8IYB3)
inactive: [1] 0.015 | [2] -0.053 | [3] -0.058 | [4] 0.061 | [5] -0.062 | [6] 0.002 | [7] 0.036 | [8] 0.04 | [9] -0.01 | [10] -0.01

SPATS2L isoform 2 (UniProt Q9NUQ6)
inactive: [1] 0.034 | [2] -0.312 | [3] -0.061 | [4] 0.1 | [5] 0.001 | [6] -0.012 | [7] -0.007 | [8] 0.039 | [9] 0.017 | [10] 0.119

STAU1 (UniProt O95793)
inactive: [1] 0.02 | [2] -0.001 | [3] -0.032 | [4] 0.002 | [5] -0.016 | [6] -0.08 | [7] -0.007 | [8] -0.018 | [9] -0.003 | [10] 0.055

SRSF11 (UniProt Q05519)
inactive: [1] -0.008 | [2] 0.008 | [3] -0.07 | [4] -0.002 | [5] -0.02 | [6] -0.006 | [7] 0.035 | [8] 0.003 | [9] -0.017 | [10] -0.004

SSX5 isoform 2 (UniProt O60225)
inactive: [1] -0.302 | [2] 0.12 | [3] -0.142 | [4] 0.195 | [5] -0.125 | [6] 0.043 | [7] -0.027 | [8] 0.23 | [9] -0.219 | [10] 0.007

ST7 (UniProt Q9NRC1)
inactive: [1] -0.001 | [2] 0.005 | [3] -0.054 | [4] -0.011 | [5] -0.032 | [6] 0.014 | [7] -0.132 | [8] -0.048 | [9] -0.011 | [10] -0.05

SRI (UniProt P30626)
inactive: [1] 0.017 | [2] -0.039 | [3] -0.047 | [4] 0.05 | [5] -0.009 | [6] -0.021 | [7] -0.046 | [8] -0.029 | [9] 0.096 | [10] -0.057

SRP54 (UniProt P61011)
inactive: [1] -0.026 | [2] 0.017 | [3] 0.035 | [4] 0.023 | [5] -0.043 | [6] 0.005 | [7] -0.039 | [8] -0.047 | [9] -0.003 | [10] -0.014

SRP72 (UniProt O76094)
inactive: [1] -0.035 | [2] -0.004 | [3] -0.002 | [4] 0.023 | [5] -0.008 | [6] -0.03 | [7] -0.033 | [8] -0.03 | [9] -0.001 | [10] -0.05

SPG11 (UniProt Q96JI7)
inactive: [1] 0.05 | [2] 0.033 | [3] 0.005 | [4] -0.012 | [5] 0.333 | [6] 0.076 | [7] 0.025 | [8] -0.016 | [9] 0.019 | [10] 0.023

Reprinted at random: 2 records from the list
SRP72 (UniProt O76094)
inactive: [1] -0.035 | [2] -0.004 | [3] -0.002 | [4] 0.023 | [5] -0.008 | [6] -0.03 | [7] -0.033 | [8] -0.03 | [9] -0.001 | [10] -0.05

SRP54 (UniProt P61011)
inactive: [1] -0.026 | [2] 0.017 | [3] 0.035 | [4] 0.023 | [5] -0.043 | [6] 0.005 | [7] -0.039 | [8] -0.047 | [9] -0.003 | [10] -0.014

Next part

SRP68 (UniProt Q9UHB9)
inactive: [1] 0.018 | [2] 0.021 | [3] 0.052 | [4] 0.035 | [5] 0 | [6] -0.019 | [7] -0.025 | [8] -0.04 | [9] -0.013 | [10] -0.006

SPC25 (UniProt Q9HBM1)
inactive: [1] 0.021 | [2] -0.065 | [3] -0.006 | [4] 0.059 | [5] -0.034 | [6] 0.021 | [7] -0.006 | [8] -0.039 | [9] 0.018 | [10] 0.027

SPC24 (UniProt Q8NBT2)
inactive: [1] 0.002 | [2] 0.004 | [3] -0.015 | [4] 0.008 | [5] 0.002 | [6] -0.003 | [7] 0.002 | [8] 0.018 | [9] -0.001 | [10] -0.003

SRF (UniProt P11831)
inactive: [1] -0.048 | [2] -0.167 | [3] 0.024 | [4] 0.044 | [5] -0.093 | [6] -0.028 | [7] 0.034 | [8] 0.024 | [9] -0.212 | [10] 0.07

SRCAP (UniProt Q6ZRS2)
inactive: [1] -0.016 | [2] 0.054 | [3] 0.048 | [4] 0.048 | [5] -0.023 | [6] -0.004 | [7] -0.07 | [8] 0 | [9] 0.027 | [10] -0.015

SPDL1 (UniProt Q96EA4)
inactive: [1] -0.01 | [2] -0.152 | [3] 0.026 | [4] 0.015 | [5] -0.01 | [6] -0.006 | [7] -0.014 | [8] -0.041 | [9] -0.033 | [10] 0.013

SPCS3 (UniProt P61009)
inactive: [1] -0.031 | [2] -0.041 | [3] -0.004 | [4] 0.039 | [5] 0.007 | [6] 0.001 | [7] 0 | [8] -0.021 | [9] 0.029 | [10] -0.06

STIM1 (UniProt Q13586)
inactive: [1] -0.037 | [2] 0.089 | [3] -0.014 | [4] 0.021 | [5] 0.001 | [6] -0.016 | [7] -0.059 | [8] -0.009 | [9] 0.005 | [10] -0.01

SPIRE1 (UniProt Q08AE8)
inactive: [1] -0.062 | [2] 0.054 | [3] -0.032 | [4] 0.068 | [5] -0.067 | [6] 0.027 | [7] 0.022 | [8] 0.013 | [9] -0.024 | [10] -0.032

SSR4 (UniProt P51571)
inactive: [1] -0.008 | [2] -0.056 | [3] 0.014 | [4] -0.004 | [5] -0.017 | [6] -0.034 | [7] 0.047 | [8] -0.028 | [9] -0.004 | [10] 0.01

STARD10 (UniProt Q9Y365)
inactive: [1] -0.004 | [2] -0.026 | [3] 0.018 | [4] -0.047 | [5] -0.022 | [6] 0 | [7] 0.036 | [8] -0.012 | [9] -0.012 | [10] -0.026

SRSF1 (UniProt Q07955)
inactive: [1] -0.011 | [2] 0.006 | [3] -0.033 | [4] -0.004 | [5] 0.004 | [6] -0.003 | [7] -0.019 | [8] 0.027 | [9] -0.001 | [10] -0.003

SPAST (UniProt Q9UBP0)
inactive: [1] 0.037 | [2] -0.075 | [3] 0.065 | [4] 0.046 | [5] -0.005 | [6] 0.009 | [7] -0.003 | [8] -0.043 | [9] 0.059 | [10] 0.024

SPTB isoform 2 (UniProt P11277)
inactive: [1] 0.023 | [2] 0.069 | [3] -0.053 | [4] 0.02 | [5] 0.008 | [6] 0.014 | [7] -0.034 | [8] -0.018 | [9] 0.023 | [10] 0.01

STARD7 (UniProt Q9NQZ5)
inactive: [1] -0.006 | [2] 0.084 | [3] 0.028 | [4] -0.038 | [5] -0.042 | [6] 0.012 | [7] -0.024 | [8] -0.029 | [9] 0.011 | [10] -0.028
